Data as given in US20090076029A1 (Palatin Technologies, Inc., priority 2007, published 2009).
Like-named read-outs stand apart in the source and are kept apart here. At least one structure is not confirmed: it was looked up by name or label, or the drawing left a doubt. Some of these results come from one statement about several compounds together.

Columns and labels:
hMC4-R [1] = system: T1, hMC4-R; assay: cAMP functional assay in HEK-293 cells expressing MC4-R (agonist, neutral antagonist/Schild); type: cell-based, human; details: for EC50 / functional status at MC4-R: cAMP assay; for functional status (pAg, Ag, Antag, Inactive): MC4-R, Table 1; for functional status at MC4-R: mostly at 1 μM
T1 construct: expressed in transfected cells; host or cells: HEK-293
Procedure: General method for EC50 determination in functional activity assay. Functional evaluation of compounds at melanocortin receptors was performed by measuring the accumulation of intracellular cAMP in HEK-293 cells expressing hMC3-R, hMC4-R or hMC5-R, and in B-16 mouse melanoma cells expressing MC1-R. Cells suspended in Earle's Balanced Salt Solution containing 10 mM HEPES (pH 7.5), 5 mM MgCl2, 1 mM glutamine, 0.1% albumin and 0.6 mM 3-isobutyl-1-methyl-xanthine, a phosphodiesterase inhibitor, were plated in 96 well plates at a density of 0.5×10^5 cells per well. Cells were incubated with the test compounds in the presence or absence of α-MSH for 1 hour at 37° C. cAMP levels in the cell lysates were measured using an EIA kit (Amersham). Data analysis and EC50 values were determined using nonlinear regression analysis with Prism Graph-Pad software.
Functional status. The agonist/antagonist status with respect to MC1-R, MC-3R, MC4-R and MC5-R of certain compounds of the invention was determined.
Assay for agonist. Evaluation of the molecules to elicit a functional response in HEK-293 cells expressing MC4-R was accomplished by measuring the accumulation of intracellular cAMP following treatment. Confluent HEK-293 cells expressing MC4-R were detached by enzyme free cell suspension buffer. Cells were suspended in Earle's Balanced Salt Solution containing 10 mM HEPES (pH 7.5), 1 mM MgCl2, 1 mM glutamine, 0.5% albumin and 0.3 mM 3-isobutyl-1-methyl-xanthine (IBMX), a phosphodiesterase inhibitor. The cells were plated in 96 well plates at a density of 0.5×10^5 cells per well and pre-incubated for 30 minutes. The cells were then challenged with the test compounds dissolved in DMSO at a concentration range of 0.05-5000 nM in a total assay volume of 200 μL for 1 hour at 37° C. The concentration of DMSO was always held at 1% in the assay mixture. NDP-α-MSH was used as the reference agonist. At the end of the incubation period the cells were disrupted by the addition of 50 μL of lysis buffer from a cAMP EIA kit (Amersham). Complete rupture of the cells was obtained by pipetting the cells multiple times. cAMP levels in the cell lysates were measured after appropriate dilution using the EIA kit (Amersham) method. Data analysis and EC50 values were determined by using nonlinear regression analysis with Prism Graph-Pad software. […] FIG. 1 illustrates typical results, showing the stimulation of cAMP using the compound of Example 11 in HEK-293/MC4-R cells with comparison to NDP-α-MSH.
Assay for Neutral Antagonist. Compounds with a high affinity for binding to MC4-R membranes but with less potency in terms of cAMP accumulation (EC50>1000 nM) and low response ratio (<0.1) were analyzed for their ability to antagonize the stimulatory effect of the agonist NDP-α-MSH. These studies were carried out in HEK-293 cells expressing MC4-R. Cells were incubated with the compounds in the presence of the agonist NDP-α-MSH and the extent of antagonism was measured by the decrease in intracellular cAMP concentrations. Screening the compounds for antagonist activity was performed at a single concentration of NDP-α-MSH (1.0 nM) over a compound concentration range of 0.5-5000 nM.
Experimental details were similar to the analysis for agonistic activity described above. Briefly, cells were pre-incubated for 30 minutes with the test compounds at concentrations between 0.5 nM and 5000 nM. The cells were then stimulated with NDP-α-MSH at a concentration of 1 nM for 1 hour. For Schild's analysis, the interactions were studied using at least 3 concentrations of the compounds, separated by a log unit, over a full range of the agonist (0.005-5000 nM). cAMP levels were measured in the cell lysates after appropriate dilution. Nonlinear regression analysis with Prism Graph-Pad software was used for Schild analysis and to obtain EC50 values. pA2 values were derived from the Schild plot of the data.

MC1-R = assay: Competitive inhibition assay using [I125]-NDP-α-MSH, MC1-R membranes; type: binding, mouse; details: for Inhibition at 1 μM (NDP-α-MSH) MC1-R: 1 μM compound
Procedure: (§1) Competitive inhibition assay using [1125]-NDP-α-MSH. A competitive inhibition binding assay was conducted using membranes prepared from HEK-293 cells transfected to express hMC3-R, hMC4-R or hMC5-R, and from B-16 mouse melanoma cells (containing MC1-R) using 0.2 to 0.4 nM [I^125]-NDP-α-MSH (New England Nuclear) in 50 mM HEPES buffer containing 1 mM MgCl2, 2 mM CaCl2, and 5 mM KCl, at pH 7.2. In certain experiments, HEK-293 cells transfected to express hMC1-R were also employed. The assay tube also contained a chosen concentration of the test compound of this invention, typically a 1 μM concentration, for determining inhibition of the binding of [^1125]-NDP-α-MSH to its receptor. Non-specific binding was measured by inhibition of binding of [I^125]-NDP-α-MSH in the assay with the presence of 1 μM α-MSH.
(§2) The assay mixture was incubated for 90 minutes at room temperature, then filtered and the membranes washed three times with ice cold buffer. The filter was dried and counted in a gamma counter for remaining radioactivity bound to the membranes. 100% specific binding was defined as the difference in radioactivity (cpm) bound to cell membranes in the absence and presence of 1 μM α-MSH. The cpm obtained in presence of test compounds were normalized with respect to 100% specific binding to determine the percent inhibition of [125]-NDP-α-MSH binding. Each assay was conducted in triplicate and the actual mean values are described, with results less than 0% reported as 0%.

hMC3-R = system: T2, hMC3-R; assay: Competitive inhibition assay using [I125]-NDP-α-MSH, hMC3-R membranes; type: binding, human; details: for Inhibition at 1 μM (NDP-α-MSH) MC3-R: 1 μM compound; for Ki: read-out: Ki (nM) (NDP-α-MSH) MC3-R
T2 construct: expressed in transfected cells; host or cells: HEK-293
Procedure: as §1, §2

hMC4-R [2] = system: T1, hMC4-R; assay: Competitive inhibition assay using [I125]-NDP-α-MSH, hMC4-R membranes; type: binding, human; details: for Inhibition at 1 μM (NDP-α-MSH) MC4-R: 1 μM compound
Procedure: as §1, §2

hMC5-R = system: T3, hMC5-R; assay: Competitive inhibition assay using [I125]-NDP-α-MSH, hMC5-R membranes; type: binding, human; details: for Inhibition at 1 μM (NDP-α-MSH) MC5-R: 1 μM compound; for Ki: read-out: Ki (nM) (NDP-α-MSH) MC5-R
T3 construct: expressed in transfected cells; host or cells: HEK-293
Procedure: as §1, §2

hMC4-R [3] = molecular target: T1, hMC4-R; type: binding, human
Procedure: Competitive binding assay using [I^125]-AgRP (83-132). Competitive binding studies using [I^125]-AgRP (83-132) were carried out on membranes isolated from cells expressing hMC4-R. The assay was performed in 96 well GF/B Millipore multiscreen filtration plates (MAFB NOB10) pre-coated with 0.5% bovine serum albumin (Fraction V). The assay mixture contained 25 mM HEPES buffer (pH 7.5) with 100 mM NaCl, 2 mM CaCl2, 2 mM MgCl2, 0.3 mM 1,10-phenanthroline, 0.5% bovine serum albumin, cell membranes, radioligand [I^125]-AgRP (83-132) (NEN), and increasing concentrations of compounds in a total volume of 200 μL. Binding was measured at radioligand concentrations of 0.2 nM. After incubating for 1 hour at 37° C., the reaction mixture was filtered and washed with an assay buffer containing 500 mM NaCl. The dried discs were punched out from the plate and counted on a gamma counter. Care was taken to limit the specific binding of the ligand to an amount not exceeding 10% of the counts added to the reaction mixture. Data were analyzed using the Prism Graph-Pad curve fitting software.

[4] = MC4-R membranes, Table 1, read-out: Ki (nM) I125-NPD-α-MSH
[5] = read-out: Ki (nM) (NDP-α-MSH) MC4-R
[6] = MC4-R membranes, Table 1, read-out: Ki (nM) I125-AgRP

Question: How did the EC50 (hMC4-R [1]) turn out when `NCCCC[C@H]1C(=O)N(CCc2ccc3ccccc3c2)CCN1C(=O)[C@@H](Cc1ccc(Cl)cc1Cl)NC(=O)c1ccc(Oc2ccccc2)cc1` [Example 22, N—[(R)-2-[(S)-2-(4-Amino-butyl)-4-(2-naphthalen-2-yl-ethyl)-3-oxo-piperazin-1-yl]-1-(2,4-dichloro-benzyl)-2-oxo-ethyl]-4-phenoxy-benzamide] was run?
Answer: > 1000 nM

Question: For `Cc1ccc(C[C@@H](N)CN2C[C@@H](C)N(C(=O)Cc3ccc4ccccc4c3)C[C@@H]2CCCNC(=N)N)c(C)c1` [Example 31, N-{3-[1-[2(R)-Amino-3-(2,4-dimethyl-phenyl)-propyl]-5(R)-methyl-4-(2-naphthalen-2-yl-acetyl)-piperazin-2(S)-yl]-propyl}-guanidine], which Ki (MC1-R) is on record?
Answer: 1360 nM

Question: What about the “Inhibition at 1 μM (NDP-α-MSH) MC1-R” value (MC1-R) of the same compound?
Answer: 11%

Question: And the “Inhibition at 1 μM (NDP-α-MSH) MC3-R” value (hMC3-R)?
Answer: 24%

Question: What about the Ki (hMC3-R) of the same compound?
Answer: 1030 nM

Question: And the “Inhibition at 1 μM (NDP-α-MSH) MC4-R” value (hMC4-R [2])?
Answer: 83%

Question: What about the Ki (hMC4-R [2]; [4]) of the same compound?
Answer: 90 nM

Question: And the Ki (hMC4-R [2]; [5])?
Answer: 106 nM

Question: And the “Inhibition at 1 μM (NDP-α-MSH) MC5-R” value (hMC5-R)?
Answer: 83%

Question: What about the Ki (hMC5-R) of the same compound?
Answer: 87 nM

Question: What about the Ki (hMC4-R [3]; [6]) of the same compound?
Answer: 95 nM

Question: And the Ki (hMC4-R [3]; read-out: Ki (nM) (AgRP) MC4-R)?
Answer: 95 nM

Question: What about the “functional status (pAg, Ag, Antag, Inactive)” value (hMC4-R [1]) of the same compound?
Answer: Inactive

Question: And the “functional status at MC4-R” value (hMC4-R [1])?
Answer: inactive

Question: With “NH2—(CH2)6—C(═O)-Ser(Bzl)-D-Phe(4-Cl)-Arg-Trp-Ala-NH2 [Example 16]” as the compound, how does the EC50 (hMC4-R [1]) read?
Answer: > 1000 nM

Question: For `Cc1ccc(C[C@@H](N)CN2C[C@@H](Cc3ccccc3)N(C(=O)Cc3ccc4ccccc4c3)C[C@@H]2CCCNC(=N)N)c(C)c1` [Example 32, N-{3-[1-[2(R)-Amino-3-(2,4-dimethyl-phenyl)-propyl]-5(R)-benzyl-4-(2-naphthalen-2-yl-acetyl)-piperazin-2(S)-yl]-propyl}-guanidine], which Ki (MC1-R) is on record?
Answer: 2880 nM

Question: What about the “Inhibition at 1 μM (NDP-α-MSH) MC1-R” value (MC1-R) of the same compound?
Answer: 0%

Question: What about the “Inhibition at 1 μM (NDP-α-MSH) MC3-R” value (hMC3-R) of the same compound?
Answer: 79%

Question: What about the Ki (hMC3-R) of the same compound?
Answer: 78 nM

Question: And the “Inhibition at 1 μM (NDP-α-MSH) MC4-R” value (hMC4-R [2])?
Answer: 96%

Question: What about the Ki (hMC4-R [2]; [4]) of the same compound?
Answer: 8 nM

Question: What about the Ki (hMC4-R [2]; [5]) of the same compound?
Answer: 9 nM

Question: What about the “Inhibition at 1 μM (NDP-α-MSH) MC5-R” value (hMC5-R) of the same compound?
Answer: 94%

Question: What about the Ki (hMC5-R) of the same compound?
Answer: 115 nM

Question: And the Ki (hMC4-R [3]; [6])?
Answer: 19 nM

Question: And the Ki (hMC4-R [3]; read-out: Ki (nM) (AgRP) MC4-R)?
Answer: 19 nM

Question: And the “functional status (pAg, Ag, Antag, Inactive)” value (hMC4-R [1])?
Answer: Inactive

Question: And the “functional status at MC4-R” value (hMC4-R [1])?
Answer: inactive

Question: `N=C(N)NCCC[C@H]1C(=O)N2C(CC[C@@H]2COc2ccc3ccccc3c2)N1C(=O)[C@@H](Cc1ccc(Cl)cc1Cl)NC(=O)[C@@H]1CC[C@H](c2ccccc2)N1` (stereo partly drawn) [Example 20, (2S,5R)-5-Phenyl-pyrrolidine-2-carboxylic acid {(R)-1-(2,4-dichloro-benzyl)-2-[(2S,5R)-2-(3-guanidino-propyl)-5-(naphthalen-2-yloxymethyl)-3-oxo-hexahydro-pyrrolo[1,2-a]imidazol-1-yl]-2-oxo-ethyl}-amide] was tested. Which EC50 (hMC4-R [1]) did it give?
Answer: > 1000 nM
